Results from the supplement of paper PMC11006884.
Shown are results outside the selection of targets with a hit, which stands elsewhere. Single values of this set are uncertain. The entries are a selection whose mix differs from that of the whole data set.

Amino acid sequences for entries named in this document (tags omitted). A change or cut given only in a name is not applied to a line headed by its entry.
UniProt Q9C0D5: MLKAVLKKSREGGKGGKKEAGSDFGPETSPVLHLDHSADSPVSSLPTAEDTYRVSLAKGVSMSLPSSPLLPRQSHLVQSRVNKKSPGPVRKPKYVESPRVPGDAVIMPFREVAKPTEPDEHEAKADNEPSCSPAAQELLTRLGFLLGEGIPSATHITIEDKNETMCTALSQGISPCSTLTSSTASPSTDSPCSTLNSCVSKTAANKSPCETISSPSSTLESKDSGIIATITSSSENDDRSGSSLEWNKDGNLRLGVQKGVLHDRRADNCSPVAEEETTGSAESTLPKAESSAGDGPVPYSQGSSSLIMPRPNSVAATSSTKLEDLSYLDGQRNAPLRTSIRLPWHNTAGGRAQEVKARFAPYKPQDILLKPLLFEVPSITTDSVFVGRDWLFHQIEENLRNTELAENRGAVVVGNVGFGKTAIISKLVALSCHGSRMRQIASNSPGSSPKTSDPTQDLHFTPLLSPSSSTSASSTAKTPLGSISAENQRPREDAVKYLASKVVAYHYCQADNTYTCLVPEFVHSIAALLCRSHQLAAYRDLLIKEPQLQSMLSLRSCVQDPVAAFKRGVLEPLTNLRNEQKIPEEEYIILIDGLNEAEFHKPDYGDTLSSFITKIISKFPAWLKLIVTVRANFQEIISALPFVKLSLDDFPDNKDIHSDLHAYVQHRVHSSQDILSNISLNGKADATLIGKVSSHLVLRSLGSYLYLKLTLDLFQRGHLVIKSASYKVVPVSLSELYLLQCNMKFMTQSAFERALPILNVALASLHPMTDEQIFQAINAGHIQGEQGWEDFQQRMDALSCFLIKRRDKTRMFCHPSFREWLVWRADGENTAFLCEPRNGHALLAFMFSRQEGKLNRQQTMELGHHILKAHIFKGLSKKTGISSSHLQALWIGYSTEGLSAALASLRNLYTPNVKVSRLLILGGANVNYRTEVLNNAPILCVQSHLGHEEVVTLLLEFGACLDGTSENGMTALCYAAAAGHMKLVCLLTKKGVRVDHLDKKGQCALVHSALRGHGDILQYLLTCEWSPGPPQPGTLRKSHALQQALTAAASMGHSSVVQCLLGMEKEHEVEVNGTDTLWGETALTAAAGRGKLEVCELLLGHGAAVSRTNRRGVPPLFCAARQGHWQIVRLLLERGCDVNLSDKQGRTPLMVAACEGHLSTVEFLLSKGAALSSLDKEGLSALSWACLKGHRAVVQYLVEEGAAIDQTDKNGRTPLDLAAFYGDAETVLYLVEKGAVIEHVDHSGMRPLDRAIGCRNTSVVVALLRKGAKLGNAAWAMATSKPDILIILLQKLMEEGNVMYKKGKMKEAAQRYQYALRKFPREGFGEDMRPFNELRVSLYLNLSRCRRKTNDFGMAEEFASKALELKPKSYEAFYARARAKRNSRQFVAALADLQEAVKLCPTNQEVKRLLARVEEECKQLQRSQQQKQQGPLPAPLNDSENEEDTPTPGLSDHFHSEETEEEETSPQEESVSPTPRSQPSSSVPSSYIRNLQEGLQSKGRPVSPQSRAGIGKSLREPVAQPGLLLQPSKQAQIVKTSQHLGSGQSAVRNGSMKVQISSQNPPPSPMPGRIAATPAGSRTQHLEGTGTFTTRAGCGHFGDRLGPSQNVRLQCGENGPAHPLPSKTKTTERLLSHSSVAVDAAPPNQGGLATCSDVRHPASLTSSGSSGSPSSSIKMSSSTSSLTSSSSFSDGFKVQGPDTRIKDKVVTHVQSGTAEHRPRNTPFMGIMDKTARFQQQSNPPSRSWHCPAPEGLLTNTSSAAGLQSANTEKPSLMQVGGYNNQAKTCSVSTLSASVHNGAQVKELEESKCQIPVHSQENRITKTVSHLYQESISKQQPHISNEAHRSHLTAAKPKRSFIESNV
UniProt Q9BTA9: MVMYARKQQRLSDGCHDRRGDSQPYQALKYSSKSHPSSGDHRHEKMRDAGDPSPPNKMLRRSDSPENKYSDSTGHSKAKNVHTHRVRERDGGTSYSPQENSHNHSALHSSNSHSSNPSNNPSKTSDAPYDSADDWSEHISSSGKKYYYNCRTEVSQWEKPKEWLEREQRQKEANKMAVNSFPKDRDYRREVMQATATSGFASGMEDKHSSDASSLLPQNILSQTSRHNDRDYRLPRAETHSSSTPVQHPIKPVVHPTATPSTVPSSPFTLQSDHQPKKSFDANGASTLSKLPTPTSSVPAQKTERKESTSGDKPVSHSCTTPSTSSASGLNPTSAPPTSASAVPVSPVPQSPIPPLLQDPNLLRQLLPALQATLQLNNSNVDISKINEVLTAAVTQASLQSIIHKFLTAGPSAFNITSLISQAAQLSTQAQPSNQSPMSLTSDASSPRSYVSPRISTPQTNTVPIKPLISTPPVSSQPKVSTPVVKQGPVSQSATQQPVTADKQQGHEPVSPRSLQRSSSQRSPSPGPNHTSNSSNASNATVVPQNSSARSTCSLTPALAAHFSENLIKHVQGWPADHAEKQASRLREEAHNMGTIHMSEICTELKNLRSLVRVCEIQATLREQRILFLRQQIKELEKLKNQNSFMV
UniProt Q9BVJ6: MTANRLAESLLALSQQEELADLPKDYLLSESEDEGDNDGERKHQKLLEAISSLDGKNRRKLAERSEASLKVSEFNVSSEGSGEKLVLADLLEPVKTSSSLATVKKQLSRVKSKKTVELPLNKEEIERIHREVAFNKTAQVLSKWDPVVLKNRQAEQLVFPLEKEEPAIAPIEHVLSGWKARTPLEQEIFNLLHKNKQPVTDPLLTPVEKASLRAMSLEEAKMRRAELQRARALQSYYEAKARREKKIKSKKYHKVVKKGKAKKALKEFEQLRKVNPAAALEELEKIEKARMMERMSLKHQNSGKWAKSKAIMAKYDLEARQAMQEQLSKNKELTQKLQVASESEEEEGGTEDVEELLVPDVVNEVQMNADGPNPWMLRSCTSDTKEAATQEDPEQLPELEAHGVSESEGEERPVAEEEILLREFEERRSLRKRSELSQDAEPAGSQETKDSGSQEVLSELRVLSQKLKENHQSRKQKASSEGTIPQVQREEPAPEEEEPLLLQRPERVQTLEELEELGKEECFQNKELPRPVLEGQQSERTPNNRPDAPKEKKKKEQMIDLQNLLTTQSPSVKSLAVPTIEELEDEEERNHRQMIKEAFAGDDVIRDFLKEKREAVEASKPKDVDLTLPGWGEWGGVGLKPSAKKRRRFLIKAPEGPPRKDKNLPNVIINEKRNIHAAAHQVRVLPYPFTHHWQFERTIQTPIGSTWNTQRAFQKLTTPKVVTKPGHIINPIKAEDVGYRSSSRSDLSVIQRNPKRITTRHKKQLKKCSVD
UniProt Q9BVL2: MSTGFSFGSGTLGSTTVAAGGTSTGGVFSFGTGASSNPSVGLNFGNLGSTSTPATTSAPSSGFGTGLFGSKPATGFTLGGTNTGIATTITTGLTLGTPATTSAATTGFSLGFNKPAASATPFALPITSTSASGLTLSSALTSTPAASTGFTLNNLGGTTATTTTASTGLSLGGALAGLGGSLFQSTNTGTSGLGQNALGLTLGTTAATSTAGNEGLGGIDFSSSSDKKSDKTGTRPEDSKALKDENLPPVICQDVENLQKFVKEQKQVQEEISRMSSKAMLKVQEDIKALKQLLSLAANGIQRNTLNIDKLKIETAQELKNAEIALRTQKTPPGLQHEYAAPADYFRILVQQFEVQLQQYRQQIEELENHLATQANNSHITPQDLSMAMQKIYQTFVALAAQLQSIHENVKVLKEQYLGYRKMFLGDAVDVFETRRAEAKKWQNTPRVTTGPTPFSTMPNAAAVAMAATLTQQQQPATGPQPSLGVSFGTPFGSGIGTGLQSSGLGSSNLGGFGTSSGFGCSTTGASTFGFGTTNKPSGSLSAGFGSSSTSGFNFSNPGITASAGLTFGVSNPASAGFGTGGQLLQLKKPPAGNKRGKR
UniProt Q9BZX2: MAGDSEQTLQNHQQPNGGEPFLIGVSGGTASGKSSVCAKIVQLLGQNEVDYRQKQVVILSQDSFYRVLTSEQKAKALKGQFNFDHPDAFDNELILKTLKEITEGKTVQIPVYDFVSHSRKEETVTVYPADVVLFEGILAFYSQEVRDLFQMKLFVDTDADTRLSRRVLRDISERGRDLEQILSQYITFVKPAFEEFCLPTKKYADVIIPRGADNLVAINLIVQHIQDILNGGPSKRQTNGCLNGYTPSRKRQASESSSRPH
UniProt Q9BW19: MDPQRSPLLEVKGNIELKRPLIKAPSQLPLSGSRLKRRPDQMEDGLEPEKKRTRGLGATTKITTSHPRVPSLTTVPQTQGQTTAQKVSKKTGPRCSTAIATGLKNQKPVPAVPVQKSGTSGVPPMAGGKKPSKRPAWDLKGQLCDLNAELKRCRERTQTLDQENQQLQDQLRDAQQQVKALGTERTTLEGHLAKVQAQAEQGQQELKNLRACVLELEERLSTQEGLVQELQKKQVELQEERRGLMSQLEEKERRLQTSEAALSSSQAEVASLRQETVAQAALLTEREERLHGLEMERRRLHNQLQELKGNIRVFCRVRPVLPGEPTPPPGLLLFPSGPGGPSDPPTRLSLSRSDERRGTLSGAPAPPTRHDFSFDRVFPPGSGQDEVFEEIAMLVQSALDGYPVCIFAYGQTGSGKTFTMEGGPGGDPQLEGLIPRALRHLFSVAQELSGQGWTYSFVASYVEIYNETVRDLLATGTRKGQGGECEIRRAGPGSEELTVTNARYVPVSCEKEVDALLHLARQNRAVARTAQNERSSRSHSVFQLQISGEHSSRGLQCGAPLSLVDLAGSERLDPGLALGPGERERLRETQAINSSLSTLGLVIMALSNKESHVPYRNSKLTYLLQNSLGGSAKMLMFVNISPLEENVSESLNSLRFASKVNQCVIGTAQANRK
UniProt Q9C0C2: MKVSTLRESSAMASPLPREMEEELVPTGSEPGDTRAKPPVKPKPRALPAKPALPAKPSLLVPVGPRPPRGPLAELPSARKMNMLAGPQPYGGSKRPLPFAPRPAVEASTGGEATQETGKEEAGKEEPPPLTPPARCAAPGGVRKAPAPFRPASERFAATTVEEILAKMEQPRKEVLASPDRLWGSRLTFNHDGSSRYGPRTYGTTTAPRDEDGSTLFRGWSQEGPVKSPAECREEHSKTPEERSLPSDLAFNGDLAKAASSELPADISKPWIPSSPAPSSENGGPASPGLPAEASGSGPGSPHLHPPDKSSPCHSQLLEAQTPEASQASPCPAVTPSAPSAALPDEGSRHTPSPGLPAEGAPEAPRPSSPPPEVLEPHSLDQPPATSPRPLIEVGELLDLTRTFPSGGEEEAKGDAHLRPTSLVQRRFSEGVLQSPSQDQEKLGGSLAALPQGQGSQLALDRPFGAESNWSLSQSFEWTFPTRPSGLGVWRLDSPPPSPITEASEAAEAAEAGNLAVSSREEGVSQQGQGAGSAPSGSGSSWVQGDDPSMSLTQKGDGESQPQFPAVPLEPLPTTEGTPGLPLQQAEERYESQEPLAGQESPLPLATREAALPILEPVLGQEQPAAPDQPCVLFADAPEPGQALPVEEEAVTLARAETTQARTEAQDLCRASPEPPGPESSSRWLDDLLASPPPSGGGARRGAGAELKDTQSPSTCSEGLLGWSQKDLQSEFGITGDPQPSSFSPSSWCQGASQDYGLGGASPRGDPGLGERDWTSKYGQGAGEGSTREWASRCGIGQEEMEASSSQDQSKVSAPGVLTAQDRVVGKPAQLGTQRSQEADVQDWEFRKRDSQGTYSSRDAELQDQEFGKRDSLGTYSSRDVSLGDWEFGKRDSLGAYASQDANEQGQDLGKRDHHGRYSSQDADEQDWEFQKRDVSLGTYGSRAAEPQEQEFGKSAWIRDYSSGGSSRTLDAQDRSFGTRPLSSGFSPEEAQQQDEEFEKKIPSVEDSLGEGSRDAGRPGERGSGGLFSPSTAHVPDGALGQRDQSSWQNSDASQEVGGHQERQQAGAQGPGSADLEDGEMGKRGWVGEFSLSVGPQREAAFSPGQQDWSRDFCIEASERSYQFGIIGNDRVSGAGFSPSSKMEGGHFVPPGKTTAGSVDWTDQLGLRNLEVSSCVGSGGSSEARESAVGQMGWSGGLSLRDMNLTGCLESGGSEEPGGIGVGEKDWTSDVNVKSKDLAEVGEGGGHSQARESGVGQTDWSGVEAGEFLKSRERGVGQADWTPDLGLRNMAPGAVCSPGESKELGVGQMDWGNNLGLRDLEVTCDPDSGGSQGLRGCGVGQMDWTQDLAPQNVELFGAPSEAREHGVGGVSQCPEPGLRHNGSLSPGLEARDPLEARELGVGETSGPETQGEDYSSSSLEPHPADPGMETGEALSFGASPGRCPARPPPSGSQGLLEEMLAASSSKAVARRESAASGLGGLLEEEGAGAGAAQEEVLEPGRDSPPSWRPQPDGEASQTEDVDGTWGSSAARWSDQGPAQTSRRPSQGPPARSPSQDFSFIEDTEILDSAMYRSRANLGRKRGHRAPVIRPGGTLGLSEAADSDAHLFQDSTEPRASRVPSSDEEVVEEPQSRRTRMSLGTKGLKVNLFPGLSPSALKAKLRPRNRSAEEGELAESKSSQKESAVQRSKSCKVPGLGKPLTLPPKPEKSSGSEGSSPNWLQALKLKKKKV

compound: COC(=O)/C=C/c1ccccc1 [methyl cinnamate]; experiment: log2 ratio of iodoacetamide-alkyne labeling of the cysteine site, DMSO over compound (competition); higher = stronger covalent engagement of the cysteine by the compound, active = 1 or more; conditions: 500 µM; treatment time 1 h; system: HEK293T cell lysate
Method in brief: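 Reporter intensities give each cysteine's log2 competition ratio as the mean of control channels over the mean of compound channels. The samples were HEK293T lysate (2 mg/mL) given vehicle or electrophile (500 µM, 1 h, ambient temperature), then iodoacetamide alkyne (1 h), followed by click coupling to sCIP-TMT reagents, pooling, trypsin digestion overnight at 37 °C, streptavidin enrichment, acid elution, Orbitrap Eclipse LC-MS/MS with FAIMS and FragPipe quantification. Duplicate channels and three replicates were run, and cysteines quantified in only one replicate were discarded.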

log2 ratio of iodoacetamide-alkyne labeling, inactive:
TANC1 C131 (UniProt Q9C0D5) 0.341
UniProt Q9BQI3_C466 0.159
WAC C553 (UniProt Q9BTA9) 0.434
UBE2O C400 (UniProt Q9C0C9) -0.0785
RPAP1 C84 (UniProt Q9BWH6) 0.133
UTP23 C207 (UniProt Q9BRU9) 0.057
RAB3GAP2 C67 (UniProt Q9H2M9) 0.421
UTP14A C522 (UniProt Q9BVJ6) 0.132
CSTF2T C441 (UniProt Q9H0L4) 0.143
MRPL4 C311 (UniProt Q9BYD3) -0.168
UniProt Q9BTT6_C22 -0.0453
TANC1 C1594 (UniProt Q9C0D5) 0.318
TXNDC17 C43 (UniProt Q9BRA2) 0.916
VPS11 C890 (UniProt Q9H270) 0.222
EIF2A C306 (UniProt Q9BY44) 0.243
PUS7L C267 (UniProt Q9H0K6) 0.313
POLDIP3 C346 (UniProt Q9BY77) 0.0252
UniProt Q9BVL2_C252 0.0467
NOC4L C509 (UniProt Q9BVI4) 0.176
UniProt Q9BU76_C179 0.23
UCK2 C241 (UniProt Q9BZX2) 0.278
C1orf50 C189 (UniProt Q9BV19) -0.34
XPO4 C492 (UniProt Q9C0E2) -0.212
KIFC1 C212 (UniProt Q9BW19) 0.152
CLPB C572 (UniProt Q9H078) -0.0962
KIFC1 C557 (UniProt Q9BW19) -0.164
TNKS1BP1 C1443 (UniProt Q9C0C2) 0.169
NUF2 C377 (UniProt Q9BZD4) 0.105
ANAPC1 C1412 (UniProt Q9H1A4) 0.0106
UniProt Q9BYG3_C237 0.454
API5 C241 (UniProt Q9BZZ5) 0.388
FAM126A C300 (UniProt Q9BYI3) 0.0359
GINS4 C53 (UniProt Q9BRT9) 0.261
RPAP1 C195 (UniProt Q9BWH6) -0.0722
UniProt Q9BTT6_C432 0.0938
UniProt Q9BXJ9_C322 0.148
DHX36 C135 (UniProt Q9H2U1) 0.388
ACTR6 C339 (UniProt Q9GZN1) 0.0523

A section from the list above:
log2 ratio of iodoacetamide-alkyne labeling, inactive:
C1orf50 C189 (UniProt Q9BV19) -0.34
XPO4 C492 (UniProt Q9C0E2) -0.212
KIFC1 C212 (UniProt Q9BW19) 0.152
